Values of other authors as cited in patent US11160796B2, “Anti-androgens for the treatment of non-metastatic castration-resistant prostate cancer” (priority 2017, dated 2021).
At least one compound was matched to its structure with a doubt left.

Tested on: LNCaP/AR cells
Conditions: literature; cited from earlier work

In the case of `CC(O)(CS(=O)(=O)c1ccc(F)cc1)C(=O)Nc1ccc(C#N)c(C(F)(F)F)c1` (stereo not shown) [bicalutamide, reference compound], the “agonist activity in the context of AR overexpression” value is given as “mixed antagonist/agonist profile”.
